Measured values from US20090036365A1.
No constants are given. Whether binding was seen depends on the method and setting. Binding calls can cover weak binding; strength is not graded here.

B1: QS4, yeast-expressed soluble protein (designed binder)
chain: EAAEMHSFCAFKADDGPCKARFERFFFNIFTRQCEQFYYGGCDGNQNRFESLEECKKMCTRD
B2: ARFK#1, yeast-expressed soluble protein (designed binder)
chain: EAAEMHSFCAFKADDGPCKARFERFFFNIFTRQCEQFVYGGCGGNQNRFESLEECKKMCTRD
B3: ARFK#2, yeast-expressed soluble protein (designed binder)
chain: EAAEMHSFCAFKADDGPCKARFERFFFNIFTRQCEEFVYGGCGGNQNRFESLEECKKMCTRD

target: Trypsin; assay: affinity chromatography on trypsin-agarose beads

binding, binds:
B1, B2, B3
